Laboratory results reported in patent US6982283B2, “Method for treating drug-induced constipation” (Sucampo AG, priority 2001, dated 2006).

Test system: Male ICR mice
Assay: Antagonism to morphine-induced constipation: graphite marker in the caecum
Format: in vivo

CN1CC[C@]23c4c5ccc(O)c4O[C@H]2[C@@H](O)C=C[C@H]3[C@H]1C5.Cl [Morphine, Morphine hydrochloride]
Ratio of animals with positive scores (morphine 5 mg/kg i.p. + vehicle (0.5% tragacanth solution), Example 2, Table 2): 20%
Ratio of animals with positive scores (morphine 5 mg/kg i.p. + vehicle (physiological saline), Example 2, Table 3): 30%
Ratio of animals with positive scores (morphine 5 mg/kg i.p. + vehicle (saline, 0.01% polysorbate 80, 0.5% ethanol) orally, Example 1, Table 1, hydrochloride): 20%
Ratio of animals with positive scores (morphine 5 mg/kg i.p. + vehicle (saline, 0.01% polysorbate 80, 0.5% ethanol) orally, Example 1, Table 1, listed as morphine, hydrochloride): 20%
